Where a name gives a salt, the structure may show the parent alone.

This data set is classed as physicochemical. Particulars: Method B; aerosol recovered from the mass coated (mg).
Take `CN1CCc2cccc3c2[C@H]1Cc1ccc(O)c(O)c1-3` [Apomorphine HCl]: the Yield amounted to 0.60.

`Cc1cccc(C)c1OCC(C)N` (centres unmarked) [Mexiletine HCl]: the Yield was 0.44.

On to `CCOC(=O)[C@H](CCc1ccccc1)N[C@@H](C)C(=O)N1CCC[C@H]1C(=O)O` [Enalapril maleate], for which the Yield is on record as 0.29.

Compound `Cl.Cl.OCCN1CCN(CCCN2c3ccccc3Sc3ccc(C(F)(F)F)cc32)CC1` [Fluphenazine 2HCl] came in with a Yield of 0.33.

For `CN1CCN(CCCN2c3ccccc3Sc3ccc(C(F)(F)F)cc32)CC1.Cl.Cl` [Trifluoperazine 2HCl], the Yield turned out to be 0.52.

The values are drawn from patent US8003080B2, “Delivery of drug amines through an inhalation route” (priority 2002, dated 2011).
